Data published in publication PMC6092624.
No constants are given. Whether binding was seen depends on the method and setting. For part of these data: In cells and extracts the contact can be indirect. Some entries that bind do so weakly or less than the wild type. For part of these data: Sequences can lack the tags named with a protein.

Amino acid sequences for entries named in this document (tags omitted). A change or cut given only in a name is not applied to a line headed by its entry.
UniProt Q62976: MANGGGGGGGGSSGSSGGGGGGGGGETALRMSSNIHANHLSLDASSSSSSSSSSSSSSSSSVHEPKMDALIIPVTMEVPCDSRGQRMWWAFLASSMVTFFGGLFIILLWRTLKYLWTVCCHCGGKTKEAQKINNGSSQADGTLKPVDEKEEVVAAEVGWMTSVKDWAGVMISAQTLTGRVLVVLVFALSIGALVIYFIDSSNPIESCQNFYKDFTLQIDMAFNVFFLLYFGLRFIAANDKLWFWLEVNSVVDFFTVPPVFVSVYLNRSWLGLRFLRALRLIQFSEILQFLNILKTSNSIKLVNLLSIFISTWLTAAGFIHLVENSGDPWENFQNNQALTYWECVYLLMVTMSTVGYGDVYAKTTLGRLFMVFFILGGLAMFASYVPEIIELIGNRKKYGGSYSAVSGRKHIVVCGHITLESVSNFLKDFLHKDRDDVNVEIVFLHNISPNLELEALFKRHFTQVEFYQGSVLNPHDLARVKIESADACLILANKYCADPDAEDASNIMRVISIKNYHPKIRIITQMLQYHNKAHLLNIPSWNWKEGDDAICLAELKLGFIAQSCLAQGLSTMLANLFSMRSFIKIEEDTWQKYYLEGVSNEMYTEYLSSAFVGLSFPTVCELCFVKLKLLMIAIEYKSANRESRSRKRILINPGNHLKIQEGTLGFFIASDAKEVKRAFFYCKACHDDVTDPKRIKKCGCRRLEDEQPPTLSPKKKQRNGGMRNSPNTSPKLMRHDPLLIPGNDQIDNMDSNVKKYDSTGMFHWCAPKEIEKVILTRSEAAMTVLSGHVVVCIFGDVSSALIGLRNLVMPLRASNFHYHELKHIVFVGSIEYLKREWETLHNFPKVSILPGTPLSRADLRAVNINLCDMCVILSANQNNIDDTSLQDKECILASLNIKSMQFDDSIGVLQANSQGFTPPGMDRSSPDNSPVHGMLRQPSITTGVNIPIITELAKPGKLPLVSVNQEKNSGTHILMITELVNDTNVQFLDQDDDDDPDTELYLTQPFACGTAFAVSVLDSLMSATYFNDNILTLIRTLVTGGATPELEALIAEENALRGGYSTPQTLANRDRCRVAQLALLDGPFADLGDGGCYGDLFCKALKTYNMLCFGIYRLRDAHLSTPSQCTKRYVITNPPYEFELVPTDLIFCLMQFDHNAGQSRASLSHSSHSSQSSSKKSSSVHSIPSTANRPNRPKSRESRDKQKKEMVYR
UniProt Q9JIR4: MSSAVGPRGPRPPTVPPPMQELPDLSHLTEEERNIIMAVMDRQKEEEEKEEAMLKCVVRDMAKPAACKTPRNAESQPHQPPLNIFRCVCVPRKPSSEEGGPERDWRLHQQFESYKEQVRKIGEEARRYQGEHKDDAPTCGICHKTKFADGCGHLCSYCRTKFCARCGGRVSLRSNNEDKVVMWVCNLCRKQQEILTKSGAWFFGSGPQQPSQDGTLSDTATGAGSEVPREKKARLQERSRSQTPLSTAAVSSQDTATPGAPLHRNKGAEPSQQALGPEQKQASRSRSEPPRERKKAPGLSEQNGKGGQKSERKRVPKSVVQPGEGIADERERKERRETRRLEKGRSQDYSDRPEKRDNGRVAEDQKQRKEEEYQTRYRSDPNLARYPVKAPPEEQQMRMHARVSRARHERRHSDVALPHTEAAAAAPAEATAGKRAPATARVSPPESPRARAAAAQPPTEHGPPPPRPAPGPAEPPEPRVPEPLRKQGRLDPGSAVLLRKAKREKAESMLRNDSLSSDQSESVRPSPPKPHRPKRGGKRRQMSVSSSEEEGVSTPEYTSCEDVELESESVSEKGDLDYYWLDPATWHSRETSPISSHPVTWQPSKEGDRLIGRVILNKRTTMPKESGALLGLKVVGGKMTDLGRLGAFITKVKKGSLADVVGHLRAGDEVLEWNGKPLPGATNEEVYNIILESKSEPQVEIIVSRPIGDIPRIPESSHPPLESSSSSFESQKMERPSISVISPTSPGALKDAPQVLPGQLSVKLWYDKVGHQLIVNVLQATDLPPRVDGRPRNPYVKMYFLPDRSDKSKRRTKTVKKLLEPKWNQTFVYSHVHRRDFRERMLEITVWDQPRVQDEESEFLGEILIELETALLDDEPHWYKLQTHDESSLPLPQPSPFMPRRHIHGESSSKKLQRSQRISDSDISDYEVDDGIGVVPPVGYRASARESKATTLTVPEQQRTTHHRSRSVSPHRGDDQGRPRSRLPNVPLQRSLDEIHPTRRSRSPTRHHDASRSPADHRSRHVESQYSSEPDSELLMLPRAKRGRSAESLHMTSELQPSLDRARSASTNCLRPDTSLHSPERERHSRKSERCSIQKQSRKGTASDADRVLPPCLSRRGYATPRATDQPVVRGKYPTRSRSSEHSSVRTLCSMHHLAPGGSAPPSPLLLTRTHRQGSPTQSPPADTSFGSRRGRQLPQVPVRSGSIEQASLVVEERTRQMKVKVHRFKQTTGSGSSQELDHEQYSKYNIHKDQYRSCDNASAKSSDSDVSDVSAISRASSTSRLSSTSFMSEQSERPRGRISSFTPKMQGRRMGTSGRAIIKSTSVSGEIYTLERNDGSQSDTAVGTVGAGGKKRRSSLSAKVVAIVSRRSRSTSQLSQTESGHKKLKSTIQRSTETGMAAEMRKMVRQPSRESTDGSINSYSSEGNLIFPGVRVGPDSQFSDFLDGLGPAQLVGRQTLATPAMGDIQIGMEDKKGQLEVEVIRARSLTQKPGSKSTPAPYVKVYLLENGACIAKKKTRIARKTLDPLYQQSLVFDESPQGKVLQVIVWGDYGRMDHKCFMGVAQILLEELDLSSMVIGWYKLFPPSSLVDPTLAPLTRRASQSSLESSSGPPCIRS
UniProt Q08460: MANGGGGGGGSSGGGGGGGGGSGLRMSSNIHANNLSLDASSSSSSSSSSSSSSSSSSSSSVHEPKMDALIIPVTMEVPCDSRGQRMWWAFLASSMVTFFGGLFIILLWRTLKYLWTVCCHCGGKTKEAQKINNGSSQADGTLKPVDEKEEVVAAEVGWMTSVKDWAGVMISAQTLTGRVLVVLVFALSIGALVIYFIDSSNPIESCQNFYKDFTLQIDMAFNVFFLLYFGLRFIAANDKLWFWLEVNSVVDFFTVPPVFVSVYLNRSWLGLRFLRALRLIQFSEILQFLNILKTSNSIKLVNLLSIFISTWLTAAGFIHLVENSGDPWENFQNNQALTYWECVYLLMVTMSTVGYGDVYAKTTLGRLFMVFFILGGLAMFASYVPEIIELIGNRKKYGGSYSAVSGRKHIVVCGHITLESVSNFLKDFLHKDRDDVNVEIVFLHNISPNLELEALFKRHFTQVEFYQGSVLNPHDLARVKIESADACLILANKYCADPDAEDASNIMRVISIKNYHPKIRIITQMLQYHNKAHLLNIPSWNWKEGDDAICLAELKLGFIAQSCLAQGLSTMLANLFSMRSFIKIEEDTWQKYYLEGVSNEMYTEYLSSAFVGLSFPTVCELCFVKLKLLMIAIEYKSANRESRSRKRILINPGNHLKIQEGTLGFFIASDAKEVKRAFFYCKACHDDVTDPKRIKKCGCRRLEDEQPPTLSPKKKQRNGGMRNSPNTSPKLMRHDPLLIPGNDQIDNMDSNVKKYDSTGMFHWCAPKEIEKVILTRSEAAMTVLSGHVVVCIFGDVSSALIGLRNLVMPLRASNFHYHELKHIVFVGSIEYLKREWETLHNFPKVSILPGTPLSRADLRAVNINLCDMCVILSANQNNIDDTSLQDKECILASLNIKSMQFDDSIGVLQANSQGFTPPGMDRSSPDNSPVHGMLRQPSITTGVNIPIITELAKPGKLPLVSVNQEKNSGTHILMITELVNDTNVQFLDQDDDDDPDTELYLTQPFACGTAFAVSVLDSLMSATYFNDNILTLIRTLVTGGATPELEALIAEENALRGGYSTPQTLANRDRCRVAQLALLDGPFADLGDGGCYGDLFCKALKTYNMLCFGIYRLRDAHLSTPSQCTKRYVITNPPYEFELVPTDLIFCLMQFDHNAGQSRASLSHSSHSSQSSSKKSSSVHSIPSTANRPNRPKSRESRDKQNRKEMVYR

Legend:
[1] = target: T1, myc-tagged full-length RBP2 (RIM-binding protein 2), residues 1–1,068 (rat) (UniProt Q9JIR1); assay: co-IP; transfected HEK293T cells co-expressing full-length RBP2 with Cav2.2 and BKα-channels
T1 sequence: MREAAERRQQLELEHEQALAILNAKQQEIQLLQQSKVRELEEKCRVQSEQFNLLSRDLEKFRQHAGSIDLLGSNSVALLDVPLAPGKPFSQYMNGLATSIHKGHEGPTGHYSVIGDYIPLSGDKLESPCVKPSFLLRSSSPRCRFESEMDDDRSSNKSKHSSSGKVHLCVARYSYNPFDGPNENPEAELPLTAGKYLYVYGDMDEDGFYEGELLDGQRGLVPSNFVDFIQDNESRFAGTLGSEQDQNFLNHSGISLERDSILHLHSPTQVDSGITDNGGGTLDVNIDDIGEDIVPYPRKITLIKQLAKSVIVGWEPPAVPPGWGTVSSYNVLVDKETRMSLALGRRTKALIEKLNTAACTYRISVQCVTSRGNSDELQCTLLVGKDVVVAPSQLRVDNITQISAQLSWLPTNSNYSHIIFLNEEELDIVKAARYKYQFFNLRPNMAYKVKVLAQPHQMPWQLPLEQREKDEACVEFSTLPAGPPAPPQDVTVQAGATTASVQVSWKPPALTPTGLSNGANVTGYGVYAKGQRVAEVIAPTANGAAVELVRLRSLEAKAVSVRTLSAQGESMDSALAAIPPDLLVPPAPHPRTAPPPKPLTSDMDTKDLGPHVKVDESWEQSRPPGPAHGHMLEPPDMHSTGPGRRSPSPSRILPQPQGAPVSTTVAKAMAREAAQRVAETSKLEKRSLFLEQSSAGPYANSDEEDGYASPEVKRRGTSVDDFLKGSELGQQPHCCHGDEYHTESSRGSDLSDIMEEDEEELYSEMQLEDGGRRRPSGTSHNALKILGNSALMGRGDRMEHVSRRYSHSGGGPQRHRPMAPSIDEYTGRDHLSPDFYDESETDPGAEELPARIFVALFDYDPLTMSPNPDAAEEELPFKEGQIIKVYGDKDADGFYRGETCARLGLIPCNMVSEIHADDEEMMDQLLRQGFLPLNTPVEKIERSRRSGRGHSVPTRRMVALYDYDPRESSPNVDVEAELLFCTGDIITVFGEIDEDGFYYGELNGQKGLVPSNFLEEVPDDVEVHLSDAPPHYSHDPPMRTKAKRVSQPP

[2] = target: T1, myc-tagged full-length RBP2 (RIM-binding protein 2), residues 1–1,068 (rat); assay: co-IP; lysates of co-transfected HEK293T cells; immunoprecipitation with antibodies to GFP (YFP), RBP2 or myc; immunoblot for myc and GFP
[3] = target: T1, myc-tagged full-length RBP2 (RIM-binding protein 2), residues 1–1,068 (rat); assay: imaging of RBP2-dependent translocation to the plasma membrane in co-transfected cells; HEK293T cells co-transfected, analysed 24 h later; line scans and Pearson correlation of the YFP signal with nuclear DAPI
[4] = target: T2, recombinant GST-fused fragment of RBP1 (aa 771–1,086) containing only the FN3 domains (UniProt Q9JIR0); assay: pull-down; recombinant GST-fused FN3 fragments of RBP1 or RBP2 as bait; YFP-BKα (aa 761–1,178) from HEK293T cell lysates; only the target purified
T2 sequence: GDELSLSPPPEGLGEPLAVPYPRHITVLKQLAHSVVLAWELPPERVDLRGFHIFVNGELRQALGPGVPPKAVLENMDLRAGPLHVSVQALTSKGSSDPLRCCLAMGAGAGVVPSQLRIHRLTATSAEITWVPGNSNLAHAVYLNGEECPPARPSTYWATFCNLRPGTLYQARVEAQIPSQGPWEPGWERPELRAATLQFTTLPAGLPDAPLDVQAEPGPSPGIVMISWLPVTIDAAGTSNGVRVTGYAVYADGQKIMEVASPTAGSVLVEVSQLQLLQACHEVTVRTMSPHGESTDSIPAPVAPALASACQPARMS

[5] = target: T3, endogenous RBP2 of mouse brain (mouse (endogenous in brain)) (UniProt Q80U40); assay: co-IP; endogenous proteins of mouse brain homogenates solubilized with Triton X-100 (1%), NP-40 (1%) or SDS (0.3%); immunoprecipitation with antibodies to RBP2 or RIMs; preimmune serum as control
T3 sequence: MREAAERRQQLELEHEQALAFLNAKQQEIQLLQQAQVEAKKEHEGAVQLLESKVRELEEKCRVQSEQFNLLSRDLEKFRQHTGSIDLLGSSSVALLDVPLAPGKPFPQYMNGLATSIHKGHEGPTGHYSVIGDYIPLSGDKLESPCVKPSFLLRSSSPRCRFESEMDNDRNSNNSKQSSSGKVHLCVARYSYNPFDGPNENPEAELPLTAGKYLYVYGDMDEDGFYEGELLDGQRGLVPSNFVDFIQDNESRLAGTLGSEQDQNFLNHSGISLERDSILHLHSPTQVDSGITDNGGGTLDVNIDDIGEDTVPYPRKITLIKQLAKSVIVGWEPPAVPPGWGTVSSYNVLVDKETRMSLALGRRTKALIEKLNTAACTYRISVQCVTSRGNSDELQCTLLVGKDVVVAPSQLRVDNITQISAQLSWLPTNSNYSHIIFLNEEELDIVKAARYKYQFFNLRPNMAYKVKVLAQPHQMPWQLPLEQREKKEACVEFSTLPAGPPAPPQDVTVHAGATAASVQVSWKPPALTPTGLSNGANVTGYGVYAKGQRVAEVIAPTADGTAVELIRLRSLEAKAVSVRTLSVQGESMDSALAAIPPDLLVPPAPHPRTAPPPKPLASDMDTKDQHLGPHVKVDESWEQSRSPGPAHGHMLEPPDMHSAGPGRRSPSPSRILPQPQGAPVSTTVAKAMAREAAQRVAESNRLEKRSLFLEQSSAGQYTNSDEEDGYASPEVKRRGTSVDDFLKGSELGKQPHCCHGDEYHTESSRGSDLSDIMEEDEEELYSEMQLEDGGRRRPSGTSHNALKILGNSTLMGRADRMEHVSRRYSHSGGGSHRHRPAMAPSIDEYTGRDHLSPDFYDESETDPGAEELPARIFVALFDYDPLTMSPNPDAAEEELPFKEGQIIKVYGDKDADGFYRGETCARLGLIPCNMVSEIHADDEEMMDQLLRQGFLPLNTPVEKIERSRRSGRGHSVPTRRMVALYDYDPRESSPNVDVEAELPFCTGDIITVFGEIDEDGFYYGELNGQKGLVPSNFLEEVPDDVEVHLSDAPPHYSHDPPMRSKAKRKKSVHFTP

| binding [1] | binding [2] | binding [3] | Substance | also measured |
| --- | --- | --- | --- | --- |
| binds |  |  | BKα-channels expressed in HEK293T cells (from UniProt Q62976 1-1209) |  |
| binds |  |  | Ca2+-channels (Cav2.2) expressed in HEK293T cells (from UniProt Q02294 1-2336) |  |
|  | binds | binds | YFP-tagged RCK1-domain of BKα (residues 391–692) (from UniProt Q62976 391-692) (domain or fragment) |  |
|  | binds | binds | YFP-tagged RCK2-domain of BKα (residues 761–1,178; from prey clone 38) (from UniProt Q62976 761-1178) (domain or fragment) | binding [4]: binds |
|  | binds |  | YFP-tagged full-length RIM1α (from UniProt Q9JIR4 1-1615) |  |
|  |  |  | endogenous BKα of mouse brain (from UniProt Q08460 1-1209) | binding [5]: binds |
